PubChem BioAssay AID504764 | Drosophila RNAi Screening Center – 2011
The screen tested about 22,000 reagents; this is an unselected part of those with a known target gene and a result. Over the whole deposit, 403 (1.9%) were called active. 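Unnormalised raw counts per well; ratio z-scores behind the hit calls and whether each hit raises or lowers signal are not deposited.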 A number with no mark means an inactive call. Not stated in the record: the amount of reagent.

Aim: 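Genome-wide screen for regulators of Notch-driven gene expression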 (primary screen)
Cell system: Drosophila Kc167 cells
Knock-down reagent: long dsRNA against Drosophila genes
Time to read-out: about 5 days (4 days dsRNA, then 24 h after transfection)
Conditions: transfection of constitutively active membrane-tethered Notch lacking the extracellular domain, read 24 h later
Read-out: 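Firefly luciferase from an E(spl)m3 reporter with active Notch, plus control-promoter and uninduced reporter wells for normalisation; unnormalised counts, duplicate wells a and b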
Reading the numbers: induced reporter light, run 1, well a and induced reporter light, run 1, well b: higher = more light from the Notch target reporter with active Notch; control promoter light, run 1, well a and control promoter light, run 1, well b: higher = more light from the viral control promoter (cell number, transfection, viability); uninduced reporter light, run 1, well a: higher = more light from the Notch target reporter without active Notch
Hit rule: 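Hit if the duplicate-averaged log2 ratio of induced to control-promoter light gives a plate-wise z beyond ±2, or induced to uninduced beyond ±1.8; weak-control or discordant-duplicate wells dropped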
Calls: active = modifier hit (raised or lowered Notch signal); inactive = not a hit

Gene	PubChem SID	induced reporter light, run 1, well a	induced reporter light, run 1, well b	control promoter light, run 1, well a	control promoter light, run 1, well b	uninduced reporter light, run 1, well a
Archease (GeneID 42551)	SID104195817	1.99e5	1.93e5	1.83e5	1.99e5	12155
CG14851 (GeneID 41763)	SID104194767	2.36e5	2.45e5	2.14e5	2.07e5	14860
Tsp42A (GeneID 35515)	SID104184654	1.77e5	1.49e5	1.91e5	1.70e5	11460
CG11791 (GeneID 43000)	SID104194183	1.73e5	1.79e5	2.19e5	2.14e5	12445
MrgBP (GeneID 35880)	SID104186209	1.66e5	1.63e5	2.50e5	2.29e5	13860
CG7884 (GeneID 32914)	SID104199857	96635	91950	1.06e5	1.19e5	12640
CG42269 (GeneID 38689)	SID104190462	1.36e5	1.38e5	1.49e5	1.56e5	5985
CG42269 (GeneID 38689)	SID104190464	1.69e5	1.54e5	1.63e5	1.58e5	6600
Vha16-5 (GeneID 34482)	SID104182778	1.37e5	1.36e5	1.11e5	1.29e5	19180
sinu (GeneID 46187)	SID104189544	1.43e5	1.41e5	2.31e5	2.81e5	13295
CG30432 (GeneID 246611)	SID104184625	77940	85090	1.26e5	1.42e5	4925
dre4 (GeneID 38248)	SID104188506	69835	92885	1.11e5	1.66e5	5910
CG8483 (GeneID 41623)	SID104196222	1.49e5	1.44e5	95285	91360	9135
CG5214 (GeneID 41360)	SID104195531	69835	84090	73875	50450	5395
CG18304 (GeneID 33969)	SID104182456	1.39e5 (active)	1.31e5	2.29e5	2.04e5	13065
CG6678 (GeneID 42581)	SID104195884	2.03e5	1.69e5	2.05e5	2.59e5	15030
CG31345 (GeneID 41576)	SID104193985	94110	92015	90435	74885	6125
CG31345 (GeneID 41576)	SID104194639	59550	77640	59985	55190	5425
Usp7 (GeneID 32169)	SID104198701	1.01e5	1.25e5	1.09e5	1.26e5	7465
Usp7 (GeneID 32169)	SID104199396	1.20e5	1.17e5	2.17e5	2.15e5	8515

In a second layout: results already given
{"Gene":"CG42269 (GeneID 38689)","PubChem SID":"SID104190464","induced reporter light, run 1, well a":1.69e5,"induced reporter light, run 1, well b":1.54e5,"control promoter light, run 1, well a":1.63e5,"control promoter light, run 1, well b":1.58e5,"uninduced reporter light, run 1, well a":6600}
{"Gene":"Vha16-5 (GeneID 34482)","PubChem SID":"SID104182778","induced reporter light, run 1, well a":1.37e5,"induced reporter light, run 1, well b":1.36e5,"control promoter light, run 1, well a":1.11e5,"control promoter light, run 1, well b":1.29e5,"uninduced reporter light, run 1, well a":19180}
